Reference: the supplement of paper PMC11006884
The entries are a selection whose mix differs from that of the whole data set. The data scatter; read single values as rough.

Sequences of proteins named here, by UniProt entry; tags and fusion partners are left off. A change or cut given only in a name is not applied to a line headed by its entry.
UniProt Q13330: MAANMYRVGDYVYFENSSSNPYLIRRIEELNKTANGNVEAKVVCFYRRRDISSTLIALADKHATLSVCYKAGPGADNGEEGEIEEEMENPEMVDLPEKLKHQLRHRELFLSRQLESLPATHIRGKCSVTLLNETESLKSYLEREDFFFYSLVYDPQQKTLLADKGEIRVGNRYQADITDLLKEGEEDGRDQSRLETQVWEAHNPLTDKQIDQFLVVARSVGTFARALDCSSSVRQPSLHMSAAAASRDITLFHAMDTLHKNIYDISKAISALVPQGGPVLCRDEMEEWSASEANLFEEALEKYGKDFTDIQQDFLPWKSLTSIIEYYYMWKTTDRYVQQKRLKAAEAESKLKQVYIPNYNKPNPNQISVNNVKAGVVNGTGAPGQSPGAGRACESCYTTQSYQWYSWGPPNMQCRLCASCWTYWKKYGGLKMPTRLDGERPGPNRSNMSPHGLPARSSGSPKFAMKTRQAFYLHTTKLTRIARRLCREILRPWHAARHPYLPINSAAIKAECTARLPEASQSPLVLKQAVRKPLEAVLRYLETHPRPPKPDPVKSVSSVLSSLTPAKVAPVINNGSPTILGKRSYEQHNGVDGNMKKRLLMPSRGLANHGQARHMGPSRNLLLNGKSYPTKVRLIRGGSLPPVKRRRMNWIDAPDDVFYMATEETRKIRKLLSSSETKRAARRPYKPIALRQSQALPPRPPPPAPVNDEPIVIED
UniProt Q13098: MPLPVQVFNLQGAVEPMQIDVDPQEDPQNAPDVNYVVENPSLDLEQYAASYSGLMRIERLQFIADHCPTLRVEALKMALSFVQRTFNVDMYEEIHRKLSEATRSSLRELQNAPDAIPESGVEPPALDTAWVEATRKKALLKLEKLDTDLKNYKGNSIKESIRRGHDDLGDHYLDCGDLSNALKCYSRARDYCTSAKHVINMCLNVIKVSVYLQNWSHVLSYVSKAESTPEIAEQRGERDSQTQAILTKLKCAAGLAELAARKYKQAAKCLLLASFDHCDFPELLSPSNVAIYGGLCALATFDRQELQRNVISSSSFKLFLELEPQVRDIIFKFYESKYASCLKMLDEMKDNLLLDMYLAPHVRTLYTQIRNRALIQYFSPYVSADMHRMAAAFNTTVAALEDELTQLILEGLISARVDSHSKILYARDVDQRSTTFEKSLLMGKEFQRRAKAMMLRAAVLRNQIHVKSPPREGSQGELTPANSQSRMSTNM
UniProt Q06330: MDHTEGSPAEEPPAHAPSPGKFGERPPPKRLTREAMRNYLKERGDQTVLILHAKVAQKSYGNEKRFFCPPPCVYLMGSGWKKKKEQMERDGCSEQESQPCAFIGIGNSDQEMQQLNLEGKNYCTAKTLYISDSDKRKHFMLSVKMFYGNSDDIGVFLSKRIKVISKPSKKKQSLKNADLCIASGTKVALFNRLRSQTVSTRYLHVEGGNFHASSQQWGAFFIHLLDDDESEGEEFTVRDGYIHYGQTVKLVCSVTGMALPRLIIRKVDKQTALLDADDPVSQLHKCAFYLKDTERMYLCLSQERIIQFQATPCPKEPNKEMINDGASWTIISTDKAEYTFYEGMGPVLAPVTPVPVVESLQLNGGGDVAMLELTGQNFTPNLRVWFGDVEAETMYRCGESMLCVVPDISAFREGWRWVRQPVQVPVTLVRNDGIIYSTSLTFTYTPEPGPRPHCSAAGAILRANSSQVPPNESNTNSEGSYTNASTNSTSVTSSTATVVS
UniProt Q12802: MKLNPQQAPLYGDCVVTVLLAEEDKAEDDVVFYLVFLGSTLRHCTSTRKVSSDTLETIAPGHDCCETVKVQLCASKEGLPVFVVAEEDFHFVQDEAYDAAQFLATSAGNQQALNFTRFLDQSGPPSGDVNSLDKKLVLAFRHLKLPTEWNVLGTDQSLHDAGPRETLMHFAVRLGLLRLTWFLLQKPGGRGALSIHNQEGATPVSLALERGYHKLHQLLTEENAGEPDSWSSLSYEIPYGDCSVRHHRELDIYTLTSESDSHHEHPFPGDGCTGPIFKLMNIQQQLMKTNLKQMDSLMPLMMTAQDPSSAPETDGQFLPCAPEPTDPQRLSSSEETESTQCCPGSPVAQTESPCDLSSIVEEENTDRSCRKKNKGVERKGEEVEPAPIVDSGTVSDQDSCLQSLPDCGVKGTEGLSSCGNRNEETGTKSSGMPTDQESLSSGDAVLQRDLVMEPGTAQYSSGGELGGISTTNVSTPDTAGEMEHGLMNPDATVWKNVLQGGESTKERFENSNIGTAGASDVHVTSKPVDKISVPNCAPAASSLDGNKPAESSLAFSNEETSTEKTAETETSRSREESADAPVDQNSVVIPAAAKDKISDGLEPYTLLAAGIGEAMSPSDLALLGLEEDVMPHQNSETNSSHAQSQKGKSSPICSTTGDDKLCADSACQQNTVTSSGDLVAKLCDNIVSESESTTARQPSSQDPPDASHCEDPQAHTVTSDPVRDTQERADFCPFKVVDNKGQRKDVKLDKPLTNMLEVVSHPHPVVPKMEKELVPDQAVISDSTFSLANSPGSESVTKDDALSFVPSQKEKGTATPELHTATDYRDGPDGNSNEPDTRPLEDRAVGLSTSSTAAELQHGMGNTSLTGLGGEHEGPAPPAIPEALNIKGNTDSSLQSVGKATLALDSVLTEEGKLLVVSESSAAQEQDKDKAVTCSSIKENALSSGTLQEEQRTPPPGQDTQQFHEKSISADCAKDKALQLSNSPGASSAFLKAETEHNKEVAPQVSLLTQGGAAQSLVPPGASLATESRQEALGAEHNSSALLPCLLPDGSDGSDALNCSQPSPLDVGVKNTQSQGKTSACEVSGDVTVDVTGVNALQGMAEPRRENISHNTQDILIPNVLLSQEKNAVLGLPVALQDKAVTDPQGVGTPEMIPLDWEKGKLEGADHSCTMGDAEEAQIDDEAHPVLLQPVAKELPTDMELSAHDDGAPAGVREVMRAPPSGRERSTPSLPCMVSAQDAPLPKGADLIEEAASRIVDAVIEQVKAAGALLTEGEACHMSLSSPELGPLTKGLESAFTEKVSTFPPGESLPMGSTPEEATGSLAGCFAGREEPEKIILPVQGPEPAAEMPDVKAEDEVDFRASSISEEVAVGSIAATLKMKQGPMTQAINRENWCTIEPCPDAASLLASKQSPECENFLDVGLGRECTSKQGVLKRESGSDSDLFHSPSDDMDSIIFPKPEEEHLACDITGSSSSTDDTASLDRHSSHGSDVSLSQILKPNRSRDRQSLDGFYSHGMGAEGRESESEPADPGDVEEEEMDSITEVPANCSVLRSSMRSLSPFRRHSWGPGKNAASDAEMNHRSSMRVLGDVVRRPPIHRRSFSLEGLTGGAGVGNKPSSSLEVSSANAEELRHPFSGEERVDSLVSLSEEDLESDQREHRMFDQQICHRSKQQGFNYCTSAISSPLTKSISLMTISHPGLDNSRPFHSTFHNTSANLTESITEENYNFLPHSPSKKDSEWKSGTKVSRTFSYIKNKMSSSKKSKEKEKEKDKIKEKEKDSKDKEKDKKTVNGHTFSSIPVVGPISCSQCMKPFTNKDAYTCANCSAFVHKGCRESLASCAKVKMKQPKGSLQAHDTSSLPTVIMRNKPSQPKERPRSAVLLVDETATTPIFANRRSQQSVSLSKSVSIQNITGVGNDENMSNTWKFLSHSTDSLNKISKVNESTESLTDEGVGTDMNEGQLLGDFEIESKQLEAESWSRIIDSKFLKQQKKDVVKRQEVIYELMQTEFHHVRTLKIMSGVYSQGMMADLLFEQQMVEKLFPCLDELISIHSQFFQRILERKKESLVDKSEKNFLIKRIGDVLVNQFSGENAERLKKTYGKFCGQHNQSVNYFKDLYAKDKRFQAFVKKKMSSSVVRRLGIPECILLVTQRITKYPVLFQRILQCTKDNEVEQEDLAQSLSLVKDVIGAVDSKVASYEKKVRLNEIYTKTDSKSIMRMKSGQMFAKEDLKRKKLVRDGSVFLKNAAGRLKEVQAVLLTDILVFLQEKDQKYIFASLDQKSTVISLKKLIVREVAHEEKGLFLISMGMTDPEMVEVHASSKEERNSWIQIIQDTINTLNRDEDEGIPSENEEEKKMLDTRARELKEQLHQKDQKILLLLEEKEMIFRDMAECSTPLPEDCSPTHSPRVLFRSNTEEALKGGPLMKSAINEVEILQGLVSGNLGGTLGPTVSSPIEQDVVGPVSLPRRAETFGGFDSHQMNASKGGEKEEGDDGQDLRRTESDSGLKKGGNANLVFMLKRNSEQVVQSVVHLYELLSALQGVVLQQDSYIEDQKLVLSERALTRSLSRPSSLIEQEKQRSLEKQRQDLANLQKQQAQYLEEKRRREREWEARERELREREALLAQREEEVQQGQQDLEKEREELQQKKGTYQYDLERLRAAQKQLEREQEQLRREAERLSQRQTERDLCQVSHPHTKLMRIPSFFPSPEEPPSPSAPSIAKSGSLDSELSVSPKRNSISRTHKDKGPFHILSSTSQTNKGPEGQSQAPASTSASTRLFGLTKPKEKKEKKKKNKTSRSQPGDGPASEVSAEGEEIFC
UniProt Q05519: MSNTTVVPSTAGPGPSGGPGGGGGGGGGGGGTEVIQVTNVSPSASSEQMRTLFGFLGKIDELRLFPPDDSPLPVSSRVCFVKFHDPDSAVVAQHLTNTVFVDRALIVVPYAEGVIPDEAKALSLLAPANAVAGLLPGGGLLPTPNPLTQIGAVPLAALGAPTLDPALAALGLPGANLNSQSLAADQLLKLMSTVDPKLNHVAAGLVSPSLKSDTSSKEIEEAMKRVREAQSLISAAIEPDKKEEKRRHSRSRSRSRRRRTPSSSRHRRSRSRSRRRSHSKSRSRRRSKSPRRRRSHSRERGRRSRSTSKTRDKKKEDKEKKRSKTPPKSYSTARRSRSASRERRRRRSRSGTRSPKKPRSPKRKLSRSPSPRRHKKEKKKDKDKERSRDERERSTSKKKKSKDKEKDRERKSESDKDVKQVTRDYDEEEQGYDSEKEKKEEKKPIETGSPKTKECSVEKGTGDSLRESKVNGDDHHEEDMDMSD
UniProt Q12948: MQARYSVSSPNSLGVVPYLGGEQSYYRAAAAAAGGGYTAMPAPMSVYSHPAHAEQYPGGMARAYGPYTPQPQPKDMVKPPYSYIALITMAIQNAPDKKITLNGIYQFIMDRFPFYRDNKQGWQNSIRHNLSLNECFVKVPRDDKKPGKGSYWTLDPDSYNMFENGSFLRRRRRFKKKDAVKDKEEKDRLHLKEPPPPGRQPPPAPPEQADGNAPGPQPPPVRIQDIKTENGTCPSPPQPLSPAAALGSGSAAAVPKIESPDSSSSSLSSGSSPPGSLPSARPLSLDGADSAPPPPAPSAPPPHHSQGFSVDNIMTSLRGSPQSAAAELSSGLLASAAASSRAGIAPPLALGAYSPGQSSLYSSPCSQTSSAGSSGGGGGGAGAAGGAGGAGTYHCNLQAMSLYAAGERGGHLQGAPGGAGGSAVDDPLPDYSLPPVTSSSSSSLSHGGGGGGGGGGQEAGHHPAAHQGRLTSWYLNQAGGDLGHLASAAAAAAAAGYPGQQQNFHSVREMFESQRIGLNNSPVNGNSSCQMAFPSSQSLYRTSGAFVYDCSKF
UniProt Q13111, whole entry, looked up: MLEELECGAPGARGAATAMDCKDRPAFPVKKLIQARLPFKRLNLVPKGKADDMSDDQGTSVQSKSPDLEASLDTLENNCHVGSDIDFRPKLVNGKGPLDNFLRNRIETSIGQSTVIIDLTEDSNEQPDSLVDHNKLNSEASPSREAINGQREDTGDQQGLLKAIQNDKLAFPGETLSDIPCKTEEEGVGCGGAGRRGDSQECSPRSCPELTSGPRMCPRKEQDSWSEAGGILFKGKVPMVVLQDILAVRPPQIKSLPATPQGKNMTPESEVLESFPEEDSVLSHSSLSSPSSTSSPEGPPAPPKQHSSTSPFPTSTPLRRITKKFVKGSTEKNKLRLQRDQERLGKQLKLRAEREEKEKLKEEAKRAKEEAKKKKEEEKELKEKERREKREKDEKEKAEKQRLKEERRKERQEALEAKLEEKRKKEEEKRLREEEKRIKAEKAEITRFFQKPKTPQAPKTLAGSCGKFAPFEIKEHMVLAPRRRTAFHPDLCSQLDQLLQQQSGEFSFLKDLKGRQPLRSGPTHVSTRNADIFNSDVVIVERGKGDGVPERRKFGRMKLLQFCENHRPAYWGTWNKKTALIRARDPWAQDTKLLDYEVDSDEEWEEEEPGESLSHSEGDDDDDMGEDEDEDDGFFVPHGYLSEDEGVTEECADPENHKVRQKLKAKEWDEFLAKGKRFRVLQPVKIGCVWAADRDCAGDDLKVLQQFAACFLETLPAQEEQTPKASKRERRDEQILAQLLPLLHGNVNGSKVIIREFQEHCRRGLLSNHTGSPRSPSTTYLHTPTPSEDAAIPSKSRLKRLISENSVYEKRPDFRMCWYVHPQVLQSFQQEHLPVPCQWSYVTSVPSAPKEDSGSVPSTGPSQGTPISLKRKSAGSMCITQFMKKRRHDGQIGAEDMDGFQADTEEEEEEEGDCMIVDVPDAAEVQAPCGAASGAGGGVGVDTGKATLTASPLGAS

Compound: COC(=O)/C=C/c1ccccc1 [methyl cinnamate]
Test: log2 ratio of iodoacetamide-alkyne labeling of the cysteine site, DMSO over compound (competition); higher = stronger covalent engagement of the cysteine by the compound, active = 1 or more
Details: 500 µM; treatment time 1 h; system: HEK293T cell lysate
Summary of the method: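 Three replicates, each with duplicate channels, were prepared from HEK293T lysate (2 mg/mL) treated with vehicle or electrophile at 500 µM for 1 h at ambient temperature. Iodoacetamide alkyne was then applied for 1 h, and samples were clicked to sCIP-TMT reagents, pooled, trypsin-digested overnight at 37 °C, enriched on streptavidin, acid-eluted and analysed on Orbitrap Eclipse LC-MS/MS with FAIMS, with FragPipe quantification. The log2 competition ratio per cysteine is the mean control-channel divided by the mean compound-channel reporter intensity. Cysteines quantified in only one replicate were left out.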

log2 ratio of iodoacetamide-alkyne labeling, inactive:
TRIM28 C628 (UniProt Q13263) -0.187
MTA1 C68 (UniProt Q13330) 0.104
NFIA C404 (UniProt Q12857) 0.163
GPS1 C175 (UniProt Q13098) 0.0483
TBL3 C613 (UniProt Q12788) 0.272
ATM C12 (UniProt Q13315) 0.0264
UniProt Q13155_C168 0.257
RBPJ C397 (UniProt Q06330) 0.321
RLF C1055 (UniProt Q13129) 0.496
AKAP13 C1276 (UniProt Q12802) 0.0929
DHX9 C438 (UniProt Q08211) 0.0198
UniProt Q05519_C455 0.255
UniProt Q12948_C529 0.0687
DST C7524 (UniProt Q03001) 0.31
CHAF1A C492 (UniProt Q13111) 0.161

Reprinted at random: 2 entries already listed
log2 ratio of iodoacetamide-alkyne labeling, inactive:
RBPJ C397 (UniProt Q06330) 0.321
RLF C1055 (UniProt Q13129) 0.496
